Measurements: publication doi:10.1101/2020.09.21.303917

Molecular target: Protease1(N) (Bacillus)
Assay: crystal structure

In the case of LFRAL [LFRAL peptide], the binding is reported as “binds”.

These are yes or no findings as the source states them, for the method shown. Binding calls can cover weak binding; strength is not graded here.
